Values of other authors, collected in PMC5499624 (Biomolecules & Therapeutics, 2017).

Conditions: ref Wu et al., 1997; cited from earlier work

## CN1CC[C@]23c4c5ccc(O)c4O[C@H]2[C@@H](O)C=C[C@H]3[C@H]1C5 [morphine]
  Brain uptake: 0.0810 ± 0.0005 %ID/g
